Data published in paper PMC9579051.
No constants are given. Whether binding was seen depends on the method and setting. In cells and extracts the contact can be indirect. Some results given as binding are weak or reduced against the parent protein; the word gives no strength.

Protein sequences, listed by entry. Tags and fused reporters are not part of them.
UniProt P09144: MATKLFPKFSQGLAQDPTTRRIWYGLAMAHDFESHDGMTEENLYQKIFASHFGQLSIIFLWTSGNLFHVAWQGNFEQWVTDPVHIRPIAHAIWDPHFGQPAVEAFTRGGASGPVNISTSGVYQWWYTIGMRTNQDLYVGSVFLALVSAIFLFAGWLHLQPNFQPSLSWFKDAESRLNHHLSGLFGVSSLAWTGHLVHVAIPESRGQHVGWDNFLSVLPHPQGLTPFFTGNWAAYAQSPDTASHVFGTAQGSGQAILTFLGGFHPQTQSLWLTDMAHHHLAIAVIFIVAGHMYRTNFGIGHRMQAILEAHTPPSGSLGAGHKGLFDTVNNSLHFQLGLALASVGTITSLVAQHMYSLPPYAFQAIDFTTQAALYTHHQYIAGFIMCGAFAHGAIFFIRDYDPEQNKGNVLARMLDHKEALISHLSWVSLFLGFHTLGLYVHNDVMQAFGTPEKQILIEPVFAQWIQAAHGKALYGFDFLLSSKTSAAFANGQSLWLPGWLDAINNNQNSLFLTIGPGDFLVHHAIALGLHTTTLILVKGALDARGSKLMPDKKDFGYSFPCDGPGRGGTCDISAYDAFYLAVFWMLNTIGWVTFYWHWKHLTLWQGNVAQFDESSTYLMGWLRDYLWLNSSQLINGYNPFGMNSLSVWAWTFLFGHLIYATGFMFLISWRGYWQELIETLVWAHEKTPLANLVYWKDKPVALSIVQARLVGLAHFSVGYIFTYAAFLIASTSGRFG

B1: PsaD (protein, UniProt Q39615 36-196)
chain: EAEAAPAAAKKAAEKPAWTVPTLNPDTPSPIFGGSTGGLLRKAQTEEFYVITWEAKKEQIFEMPTGGAAIMRQGPNLLKFGKKEQCLALTTQLRNKFKLTPCFYRVFPDGKVQYLHPADGVYPEKVNAGRVGANQNMRRIGQNVNPIKVKFSGRMMSPAEI
B2: PsaG (protein, UniProt P14224 31-126)
chain: ALDPQIVISGSTAAFLAIGRFVFLGYQRREANFDSTVGPKTTGATYFDDLQKNSTIFATNDPAGFNIIDVAGWGALGHAVGFAVLAINSLQGANLS
B3: PsaF (protein, UniProt P12356 63-227)
chain: DIAGLTPCSESKAYAKLEKKELKTLEKRLKQYEADSAPAVALKATMERTKARFANYAKAGLLCGNDGLPHLIADPGLALKYGHAGEVFIPTFGFLYVAGYIGYVGRQYLIAVKGEAKPTDKEIIIDVPLATKLAWQGAGWPLAAVQELQRGTLLEKEENITVSPR

Biological target: PsaB fused with His20-tag after the third residue from the N-terminus (Chlamydomonas reinhardtii) (UniProt P09144)
Assay: pull-down; His20-PsaB from α-DDM solubilized thylakoids on a TALON metal affinity column, eluted with 150 mM imidazole, then sucrose density gradient; SDS-PAGE and Western blot of elution, monomer and dimer fractions

binding, binds:
B1
B2
B3
